Values from PubChem BioAssay AID504774 (Drosophila RNAi Screening Center, 2011).

Purpose: 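Knock-downs that shift viability of MMS-exposed cells relative to untreated ones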 (primary screen)
System: Drosophila Kc167 cells
Knock-down reagent: long dsRNA against Drosophila genes, about 0.25 µg dsRNA per well
Duration: about 6 days: 3 days knock-down, then 3 days with or without MMS
Treatment: methyl methanesulphonate 0.004% (w/v) for 3 days after knock-down
Measured: 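ATP-dependent luminescence as a measure of live cells in MMS-exposed wells, quantile normalised within each plate, with replicate values also given as a mean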
Reading the numbers: mean viability with MMS and viability with MMS: higher = more surviving cells after MMS
In all, the deposit lists about 23,000 reagents; shown is an unselected part of those that have a named target and a result. 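Values are quantile-normalised luminescence on an arbitrary scale; higher means more cells surviving MMS.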 Further read-outs or replicates are left out here.

Gene | DRSC id | mean viability with MMS | viability with MMS, replicate 1
CG7271 | DRSC22561 | 3.49e6 | 4.02e6
saturn | DRSC09303 | 3.59e6 | 4.13e6
Prx3 (Peroxiredoxin 3) | DRSC15883 | 3.65e6 | 4.05e6
CG10298 | DRSC12522 | 3.51e6 | 3.98e6
VhaM9.7-b (Vacuolar H[+] ATPase M9.7 subunit b) | DRSC11841 | 3.49e6 | 3.88e6
CG11788 | DRSC06084 | 3.50e6 | 3.98e6
Rim2 (Replication in mitochondria 2) | DRSC00073 | 3.57e6 | 4.03e6
Rim2 (Replication in mitochondria 2) | DRSC00520 | 3.58e6 | 4.20e6
Rim2 (Replication in mitochondria 2) | DRSC22699 | 3.56e6 | 3.97e6
Neto (Neuropilin and tolloid-like) | DRSC18982 | 2.12e6 | 4.26e6
Neto (Neuropilin and tolloid-like) | DRSC19503 | 3.49e6 | 3.88e6
Neto (Neuropilin and tolloid-like) | DRSC19716 | 3.59e6 | 4.09e6
Neto (Neuropilin and tolloid-like) | DRSC19717 | 3.50e6 | 3.99e6
CG13510 | DRSC04152 | 3.85e6 | 4.33e6
Galphai (G protein alpha subunit i) | DRSC11168 | 3.50e6 | 3.97e6
CG12661 | DRSC17864 | 3.48e6 | 3.76e6
wntD (wnt inhibitor of Dorsal) | DRSC16423 | 3.50e6 | 4.02e6
CG3224 | DRSC18295 | 3.44e6 | 3.88e6
mus81 | DRSC18180 | 3.65e6 | 4.10e6
mus81 | DRSC18644 | 3.67e6 | 4.10e6
CG17687 | DRSC10279 | 3.60e6 | 3.96e6
CG5721 | DRSC06945 | 3.47e6 | 3.88e6
CG7579 | DRSC10885 | 3.55e6 | 4.16e6
CG8507 | DRSC16435 | 3.44e6 | 3.85e6
CG11597 | DRSC09847 | 3.42e6 | 3.87e6
Cby (Chibby) | DRSC14591 | 3.43e6 | 3.79e6
CG42383 | DRSC21733 | 3.51e6 | 3.96e6
GluRIA (Glutamate receptor IA) | DRSC11176 | 3.67e6 | 4.22e6
